This is an account of results in paper PMC5393633.

The exact form of at least one protein or probe is not confirmed. Where cells or extracts were used, other partners may take part. No signal at the amounts used counts as a negative. Tags and fusion partners may be left off the protein sequences shown.

For data set [1], the target named is T1, Odd-paired (Opa) (UniProt P39768).
T1 sequence (looked up, limits assumed): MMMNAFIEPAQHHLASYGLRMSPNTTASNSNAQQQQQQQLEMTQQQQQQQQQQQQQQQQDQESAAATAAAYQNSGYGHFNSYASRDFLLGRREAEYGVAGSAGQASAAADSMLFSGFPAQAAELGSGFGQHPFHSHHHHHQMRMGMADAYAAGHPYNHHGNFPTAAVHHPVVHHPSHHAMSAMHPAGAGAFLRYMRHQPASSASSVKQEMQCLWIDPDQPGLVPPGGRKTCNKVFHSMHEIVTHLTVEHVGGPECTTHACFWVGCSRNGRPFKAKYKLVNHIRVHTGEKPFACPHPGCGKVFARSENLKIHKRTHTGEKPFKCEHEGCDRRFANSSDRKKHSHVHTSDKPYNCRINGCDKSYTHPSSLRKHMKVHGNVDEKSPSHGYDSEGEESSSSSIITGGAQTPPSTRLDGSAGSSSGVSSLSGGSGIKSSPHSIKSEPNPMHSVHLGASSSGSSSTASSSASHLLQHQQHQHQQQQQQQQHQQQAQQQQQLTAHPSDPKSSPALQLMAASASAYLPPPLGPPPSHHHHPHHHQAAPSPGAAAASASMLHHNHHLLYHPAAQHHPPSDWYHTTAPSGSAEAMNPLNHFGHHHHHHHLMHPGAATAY
The experiment in a line: EMSA. As to conditions: poly(dI-dC), EMSA: 10 mM Tris-HCl pH 8.0, 25 mM KCl, 1 mM DTT, 1 ug poly-dIdC, 2.5% glycerol, 0.05% Triton X-100, 0.2 mM MgCl2, 20 min room temperature, 6% native TBE-PAGE, protein in a lysate after overexpression, protein details: C-terminal OLLAS and 6xHis. Background: A gel shift assay detects complexes by their altered migration in electrophoresis.

Data set [2] addresses T1, Odd-paired (Opa). Put plainly: competition with a labelled probe. As to conditions: 100x unlabeled mutant vs labeled wild-type probe; EMSA: 10 mM Tris-HCl pH 8.0, 25 mM KCl, 1 mM DTT, 1 ug poly-dIdC, 2.5% glycerol, 0.05% Triton X-100, 0.2 mM MgCl2, 20 min room temperature; 6% native TBE-PAGE; protein in a lysate after overexpression; protein details: C-terminal OLLAS and 6xHis; label: 3'-end biotin (unlabeled as competitor).

Setting [3] is: labeled mutant probe, label: 3'-end biotin (unlabeled as competitor).
Setting [4] is: reversed by 100x unlabeled probe, label: 3'-end biotin.

As to “TGACTTGTGCGTTTCACCAATCGCCGCAGGGAAGTGGCGTCACGGCCTGG (double strand) [Opa_SELEX mutant]”, the binding result with Odd-paired (Opa) [1] (setting [3]) and with Odd-paired (Opa) [2] was “no binding” throughout.

“GTGCAGCCTTTAGTCTGACCCCTGACCTCCGGCTGGCCTACCTGCTGTTG (double strand) [Opa_JASPAR]”: the binding result with Odd-paired (Opa) [1] (setting [4]) is given as “binds”.

With “TGACTTGTGCGTTTCACCAATCGCCGCGGGGATGTGGCGTCACGGCCTGG (double strand) [Opa_SELEX]”, the binding result with Odd-paired (Opa) [1] (setting [4]) is “binds”.

Consider “GTGCAGCCTTTAGTCTGACCCCTGTCCTCTGGCTGGCCTACCTGCTGTTG (double strand) [Opa_JASPAR mutant]”, for which the binding result with Odd-paired (Opa) [1] (setting [3]) and with Odd-paired (Opa) [2] was “no binding” throughout.
